Results are given in words; binding and its absence hold for the method and conditions named.
Molecular target: NRP-1 b1b2 with mutated CendR binding pocket
Experiment: nanoparticle binding to recombinant protein

B1: PL3-functionalized silver nanoparticles (biotinylated PL3 peptide on NeutrAvidin-coated AgNPs) (peptide)
peptide: AGRGRLVR
modifications: biotinylated; bound to NeutrAvidin on dye-labeled PEGylated silver nanoparticles
- binding: no binding

Source: patent US20220119450A1
